In patent US6365711:
These are yes or no findings as the source states them, for the method shown. Some binding calls cover weakened binding; strength is not graded here. Sequences can lack the tags named with a protein.

Chains of the proteins cited; added tags and fusions are not shown. Lines headed by an entry give the natural chain unless they say otherwise; changes in a name come on top.
UniProt O70436: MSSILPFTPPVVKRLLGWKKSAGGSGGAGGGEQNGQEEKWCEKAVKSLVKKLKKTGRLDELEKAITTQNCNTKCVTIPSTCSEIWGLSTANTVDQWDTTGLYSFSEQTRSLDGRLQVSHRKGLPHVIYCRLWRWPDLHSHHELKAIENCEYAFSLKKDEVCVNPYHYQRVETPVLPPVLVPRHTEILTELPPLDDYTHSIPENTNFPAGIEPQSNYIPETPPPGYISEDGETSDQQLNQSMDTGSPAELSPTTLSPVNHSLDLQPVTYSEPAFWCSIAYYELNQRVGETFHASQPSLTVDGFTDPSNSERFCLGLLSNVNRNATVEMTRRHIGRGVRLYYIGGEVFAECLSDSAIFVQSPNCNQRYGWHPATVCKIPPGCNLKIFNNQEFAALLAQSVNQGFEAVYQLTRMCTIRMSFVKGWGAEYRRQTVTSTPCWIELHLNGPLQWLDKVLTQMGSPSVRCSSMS

B1: Myc-tagged Δ1-366 FAST-1 (protein, not shown: small tags and cut ends)
chain: HPIKRSREDDDCSTTSSDPDTGNYSPIEPPKKMPLLSLDLPTSYTKSVAPNVVAPPSVLPFFHFPRFTYYNYGPSPYMTPPYWGFPHPTNSGGDSPRGPQSPLDLDNMLRAMPPNKSVFDVLTSHPGDLVHPSFLSQCLGSSGSPYPSRQGLMYRRRPPGLTWSGHSMK
B2: Myc-tagged Δ506-534 (protein, not shown: small tags and cut ends)
chain: YREGGTWSPDRGSMYGLSPGTHEGSCTHTHEGPKDSMAGDQTRSRKSKKKNYHRYNKPPYSYLAMIALVIQNSPEKRLKLSQILKEVSTLFPFFNGDYMGWKDSIRHNLSSSDCFKKILKDPGKPQAKGNFWTVDVSRIPLDAMKLQNTALTRGGSDYFVQDLAPYILHNYKYEHNAGAYGHQMPPSHARSLSLAEDSQQTNTGGKLNTSFMIDSLLHDLQEVDLPDASRNLENQRISPAVAMNNMWSSAPLLYTHSKPTRNARSPGLSTIHSTYSSSSSSISTISPVGFQKEQEKSGRQTQRVGHPIKRSREDDDCSTTSSDPDTGNYSPIEPPKKMPLLSLDLPTSYTKSVAPNVVAPPSVLPFFHFPRFTYYNYGPSPYMTPPYWGFPHPTNSGGDSPRGPQSPLDLDNMLRAMPPNKSVFDVLTSHPGDLVHPSFLSQCLG
B3: FAST-1 (aa366-518) GAL4 DNA-binding domain fusion (protein, not shown: small tags and cut ends)
chain: HPIKRSREDDDCSTTSSDPDTGNYSPIEPPKKMPLLSLDLPTSYTKSVAPNVVAPPSVLPFFHFPRFTYYNYGPSPYMTPPYWGFPHPTNSGGDSPRGPQSPLDLDNMLRAMPPNKSVFDVLTSHPGDLVHPSFLSQCLGSSGSPYPSRQGLM

Key:
[1] = target: Myc-tagged Smad2 (Xenopus); assay: Myc-tagged FAST-1 deletion mutant co-expressed with tagged Smad and activin in Xenopus embryos (summarised in FIG. 6A)
[2] = target: Xenopus Smad2 MH2 domain (aa248 to aa467) GAL4 activation domain fusion (Xenopus) (UniProt O70436); assay: yeast two-hybrid
[3] = target: Xenopus Smad2 MH2 domain (aa248 to aa467) GAL4 activation domain fusion (Xenopus) (UniProt O70436); assay: yeast two-hybrid, X-gal colony lift filter assay (color intensity)

Row | Binder | binding [1] | binding [2] | binding [3]
1 | B1 | binds |  | 
2 | B2 | binds |  | 
3 | B3 |  | binds | binds
